Source: PubChem BioAssay AID316 (DTP/NCI, 2004)
The list shows only some results of the screen, not a fair sample: it gathers tests that were run many times, whatever their T/C, doses with no T/C, and many T/C values between a quarter and a half above the control. Other doses and runs of a compound stand elsewhere. T/C gives the treated animals as a percentage of the vehicle group. Some entries give survivors of the animals treated and no T/C: the source holds a T/C of zero for them, seemingly a mark for toxic or unscored doses. Some doses without a T/C left all or most animals alive at the check, yet need not have been tolerated: the source hardly ever lists a survival T/C far under the control, and the zero likely stands for such cases as well. Counts of survivors are from the toxicity check (mostly the fifth day) where no day follows; animals may have died later. Schedules are NCI's codes, taken here to give the interval after Q, in days (D) or hours (H), and the number of doses after X. Some schedule codes hold Z or #, which are not explained here. Where survival is the endpoint, the PubChem record calls one and a half times the control and up active, and a quarter to a half above the control has no call in these data; cut-offs in other NCI protocols can differ. Counts like (3×) give the number of equal values in this list. Some doses were run more than once; the values are given in rising order.

System: P1534 leukemia ip, CD2F1 mice, survival T/C
Experiment: NCI In Vivo Anticancer Drug Screen. Data for tumor model P1534 Leukemia (intraperitoneal) in CD2F1 (CDF1) mice
Details: T/C endpoint: mean survival time, higher T/C = longer survival
Method: The antitumor activity of compounds was measured in mice bearing transplantable tumors. Survival or tumor size were measured and the results are expressed as the measurement made in the treated group (T) divided by the measurement made in the vehicle treated control group (C). The tumor model used in this assay is P1534 Leukemia (intraperitoneal) in CD2F1 (CDF1) mice

[1] = dose: 2.0 mg/kg/injection, schedule: Q01DX010 (ip), vehicle: saline
[2] = dose: 4.0 mg/kg/injection, schedule: Q01DX010 (ip), vehicle: saline
[3] = dose: 16.0 mg/kg/injection, schedule: Q01DX010 (ip), vehicle: saline
[4] = dose: 32.0 mg/kg/injection, schedule: Q01DX010 (ip), vehicle: saline
[5] = dose: 20.0 mg/kg/injection, schedule: Q01DX010 (ip), vehicle: saline
[6] = dose: 200.0 mg/kg/injection, schedule: Q01DX010 (ip), vehicle: saline
[7] = dose: 80.0 mg/kg/injection, schedule: Q01DX010 (ip), vehicle: saline
[8] = dose: 6.25 mg/kg/injection, schedule: Q01DX010 (ip), vehicle: saline
[9] = dose: 12.5 mg/kg/injection, schedule: Q01DX010 (ip), vehicle: saline
[10] = dose: 25.0 mg/kg/injection, schedule: Q01DX010 (ip), vehicle: saline
[11] = dose: 50.0 mg/kg/injection, schedule: Q01DX010 (ip), vehicle: saline
[12] = dose: 100.0 mg/kg/injection, schedule: Q01DX010 (ip), vehicle: saline
[13] = dose: 400.0 mg/kg/injection, schedule: Q01DX010 (ip), vehicle: saline
[14] = dose: 1.0 mg/kg/injection, schedule: Q01DX010 (ip), vehicle: saline

O=C(Nc1ccc(C2=NCCN2)cc1)c1ccc(C(=O)Nc2ccc(C3=NCCN3)cc2)c(Cl)c1
T/C [1]: 87, 95, 98 % of control (2×)
T/C [2]: 88, 98, 100 % of control (2×)
T/C (dose: 8.0 mg/kg/injection, schedule: Q01DX010 (ip), vehicle: saline): 92, 98 (2×), 120 % of control
T/C [3]: 98, 100, 102, 104 % of control
T/C [4]: 99, 100, 101 % of control
survivor count [4]: 3 of 6

CCNc1nncs1
survivor count [4]: 6 of 6
survivor count (dose: 64.0 mg/kg/injection, schedule: Q01DX010 (ip), vehicle: saline): 6 of 6

O=C(NCCCCC(NC(=O)OCc1ccccc1)C(=O)NCCCNCCCCNCCCNC(=O)C(CCCCNC(=O)OCc1ccccc1)NC(=O)OCc1ccccc1)OCc1ccccc1 (stereo not drawn)
survivor count [5]: 0 of 6

Cc1ccccn1
survivor count (dose: 500.0 mg/kg/injection, schedule: Q01DX010 (ip), vehicle: saline): 3 of 6

CC1CCC2(NC1)OC1CC3C4CCC5CC(OC6OC(CO)C(OC7OC(CO)C(O)C(OC8OCC(O)C(O)C8O)C7OC7OC(CO)C(O)C(O)C7O)C(O)C6O)CCC5(C)C4CCC3(C)C1C2C (stereo not drawn)
survivor count (dose: 20.0 mg/kg/injection, schedule: Q01DX010 (sc), vehicle: steroid suspending solution): 0 of 6
survivor count (dose: 40.0 mg/kg/injection, schedule: Q01DX010 (sc), vehicle: steroid suspending solution): 0 of 6

O=[n+]1c2c(n([O-])c3ccccc31)-c1cccc3cccc-2c13
survivor count [6]: 5 of 6

OCC1OC(n2cnc3c(=S)nc[nH]c32)C(O)C1O (stereo not drawn)
T/C [7]: 133 % of control (2×)

COc1ccc2[nH]c3c(C)c4ccncc4c(C)c3c2c1
T/C [7]: 135 % of control

N=C(N)SCc1c2ccccc2c(CSC(=N)N)c2ccccc12
T/C (dose: 1.25 mg/kg/injection, schedule: Q01DX010 (ip), vehicle: saline): 139 % of control
T/C (dose: 2.5 mg/kg/injection, schedule: Q01DX010 (ip), vehicle: saline): 132 % of control

N=[N+]=CC(=O)OCC(N)C(=O)O (stereo not drawn)
T/C (dose: 1.57 mg/kg/injection, schedule: Q01DX010 (ip), vehicle: saline): 121, 127, 128, 133 % of control
T/C (dose: 3.13 mg/kg/injection, schedule: Q01DX010 (ip), vehicle: other): 127 % of control
T/C (dose: 3.13 mg/kg/injection, schedule: Q01DX010 (ip), vehicle: saline): 117, 125, 127, 130, 132 % of control
T/C [8]: 119, 125, 128, 137, 138 % of control
survivor count (dose: 12.5 mg/kg/injection, schedule: Q01DX010 (ip), vehicle: other): 6 of 6
T/C [9]: 88, 94, 96, 99 % of control
survivor count (dose: 25.0 mg/kg/injection, schedule: Q01DX010 (ip), vehicle: other): 6 of 6
T/C [10]: 100 % of control
survivor count [10]: 6 of 6

COc1cc(-c2ccc(Nc3ccccc3C(=O)O)c(OC)c2)ccc1Nc1ccccc1C(=O)O
survivor count [11]: 6 of 6
T/C [12]: 139 % of control
survivor count [12]: 6 of 6
survivor count [6]: 3 of 6

OCCN1CCC(CCCC2CCN(CCO)CC2)CC1
survivor count [10]: 5 of 6
survivor count [11]: 5 of 6
survivor count [12]: 6 of 6
survivor count [6]: 0 of 6

Cc1cc2nc3c(=O)[nH]c(=O)nc-3n(CC(O)C(O)C(O)C(O)CO)c2cc1C (stereo not drawn)
survivor count [6]: 6 of 6
survivor count [13]: 5 of 6

COC(=O)C1=COC(C)C2CN3CCc4c([nH]c5ccccc45)C3CC12 (stereo not drawn)
survivor count (dose: 160.0 mg/kg/injection, schedule: Q01DX010 (ip), vehicle: saline): 6 of 6

O=C(NCCCC(NC(=O)OCc1ccccc1)C(=O)NCCCNCCCCNCCCNC(=O)C(CCCNC(=O)OCc1ccccc1)NC(=O)OCc1ccccc1)OCc1ccccc1 (stereo not drawn)
survivor count (dose: 5.0 mg/kg/injection, schedule: Q01DX010 (ip), vehicle: saline): 6 of 6
survivor count [5]: 3 of 6

CN(C)[C@@H]1C(=O)C(C(N)=O)=C(O)[C@@]2(O)C(=O)C3=C(O)c4c(O)cccc4C[C@H]3C[C@@H]12
survivor count (dose: 60.0 mg/kg/injection, schedule: Q01DX010 (ip), vehicle: saline): 6 of 6
survivor count (dose: 120.0 mg/kg/injection, schedule: Q01DX010 (ip), vehicle: saline): 0 of 6

CCC(CCC(C)C1CCC2C3CC=C4CC(O)CCC4(C)C3CCC12C)C(C)C (stereo not drawn) (tested in a mixture with another compound)
survivor count (dose: 12.5 mg/kg/injection, schedule: Q#A X020 (ip), vehicle: other): 6 of 6
survivor count (dose: 50.0 mg/kg/injection, schedule: Q#A X020 (ip), vehicle: other): 5 of 6
survivor count (dose: 100.0 mg/kg/injection, schedule: Q01DX010 (ip), vehicle: water): 5 of 6
survivor count (dose: 100.0 mg/kg/injection, schedule: Q#A X020 (ip), vehicle: other): 0 of 6

C[C@H]1/C(=C/C(=O)OCCN(C)C)CC[C@H]2[C@H]1C(=O)C[C@H]1C(C)(C)[C@@H](O)CC[C@]21C
survivor count [1]: 5 of 6
survivor count [3]: 5 of 6

N#Cc1cn(C2OC(CO)C(O)C2O)c2ncnc(N)c12 (stereo not drawn)
survivor count (dose: 62.5 micrograms/kg/injection, schedule: Q01DX010 (ip), vehicle: saline): 6 of 6
survivor count (dose: 125.0 micrograms/kg/injection, schedule: Q01DX010 (ip), vehicle: saline): 6 of 6

CO[C@@]12[C@H](COC(N)=O)C3=C(C(=O)C(C)=C(N)C3=O)N1C[C@@H]1N[C@@H]12
T/C (dose: 0.5 mg/kg/injection, schedule: Q01DX010 (ip), vehicle: saline): 128 % of control
T/C [14]: 139 % of control
survivor count [1]: 6 of 6
survivor count [2]: 6 of 6

COc1cc(C[C@H]2c3cc(OC)c(OC)cc3CCN2C)c(Oc2cc3c(cc2OC)-c2c(OC)c(OC)cc4c2[C@H](C3)N(C)CC4)cc1OC
survivor count [8]: 6 of 6
survivor count [9]: 6 of 6

O=c1ccc2ccccc2o1
survivor count [13]: 4 of 6

COc1ccc2c3c(c4cc(OC)c(OC)cc4c2c1)C[C@H]1CCCCN1C3
survivor count [14]: 6 of 6
survivor count (dose: 1.5 mg/kg/injection, schedule: Q01DX010 (ip), vehicle: saline): 3 of 6
